Assay results from publication PMC5493768.
These are yes or no findings as the source states them, for the method shown. Binding seen in cells or lysates may run through a third protein. Some binding calls cover weakened binding; strength is not graded here.

Chains of the proteins cited; added tags and fusions are not shown.
UniProt Q4JK59: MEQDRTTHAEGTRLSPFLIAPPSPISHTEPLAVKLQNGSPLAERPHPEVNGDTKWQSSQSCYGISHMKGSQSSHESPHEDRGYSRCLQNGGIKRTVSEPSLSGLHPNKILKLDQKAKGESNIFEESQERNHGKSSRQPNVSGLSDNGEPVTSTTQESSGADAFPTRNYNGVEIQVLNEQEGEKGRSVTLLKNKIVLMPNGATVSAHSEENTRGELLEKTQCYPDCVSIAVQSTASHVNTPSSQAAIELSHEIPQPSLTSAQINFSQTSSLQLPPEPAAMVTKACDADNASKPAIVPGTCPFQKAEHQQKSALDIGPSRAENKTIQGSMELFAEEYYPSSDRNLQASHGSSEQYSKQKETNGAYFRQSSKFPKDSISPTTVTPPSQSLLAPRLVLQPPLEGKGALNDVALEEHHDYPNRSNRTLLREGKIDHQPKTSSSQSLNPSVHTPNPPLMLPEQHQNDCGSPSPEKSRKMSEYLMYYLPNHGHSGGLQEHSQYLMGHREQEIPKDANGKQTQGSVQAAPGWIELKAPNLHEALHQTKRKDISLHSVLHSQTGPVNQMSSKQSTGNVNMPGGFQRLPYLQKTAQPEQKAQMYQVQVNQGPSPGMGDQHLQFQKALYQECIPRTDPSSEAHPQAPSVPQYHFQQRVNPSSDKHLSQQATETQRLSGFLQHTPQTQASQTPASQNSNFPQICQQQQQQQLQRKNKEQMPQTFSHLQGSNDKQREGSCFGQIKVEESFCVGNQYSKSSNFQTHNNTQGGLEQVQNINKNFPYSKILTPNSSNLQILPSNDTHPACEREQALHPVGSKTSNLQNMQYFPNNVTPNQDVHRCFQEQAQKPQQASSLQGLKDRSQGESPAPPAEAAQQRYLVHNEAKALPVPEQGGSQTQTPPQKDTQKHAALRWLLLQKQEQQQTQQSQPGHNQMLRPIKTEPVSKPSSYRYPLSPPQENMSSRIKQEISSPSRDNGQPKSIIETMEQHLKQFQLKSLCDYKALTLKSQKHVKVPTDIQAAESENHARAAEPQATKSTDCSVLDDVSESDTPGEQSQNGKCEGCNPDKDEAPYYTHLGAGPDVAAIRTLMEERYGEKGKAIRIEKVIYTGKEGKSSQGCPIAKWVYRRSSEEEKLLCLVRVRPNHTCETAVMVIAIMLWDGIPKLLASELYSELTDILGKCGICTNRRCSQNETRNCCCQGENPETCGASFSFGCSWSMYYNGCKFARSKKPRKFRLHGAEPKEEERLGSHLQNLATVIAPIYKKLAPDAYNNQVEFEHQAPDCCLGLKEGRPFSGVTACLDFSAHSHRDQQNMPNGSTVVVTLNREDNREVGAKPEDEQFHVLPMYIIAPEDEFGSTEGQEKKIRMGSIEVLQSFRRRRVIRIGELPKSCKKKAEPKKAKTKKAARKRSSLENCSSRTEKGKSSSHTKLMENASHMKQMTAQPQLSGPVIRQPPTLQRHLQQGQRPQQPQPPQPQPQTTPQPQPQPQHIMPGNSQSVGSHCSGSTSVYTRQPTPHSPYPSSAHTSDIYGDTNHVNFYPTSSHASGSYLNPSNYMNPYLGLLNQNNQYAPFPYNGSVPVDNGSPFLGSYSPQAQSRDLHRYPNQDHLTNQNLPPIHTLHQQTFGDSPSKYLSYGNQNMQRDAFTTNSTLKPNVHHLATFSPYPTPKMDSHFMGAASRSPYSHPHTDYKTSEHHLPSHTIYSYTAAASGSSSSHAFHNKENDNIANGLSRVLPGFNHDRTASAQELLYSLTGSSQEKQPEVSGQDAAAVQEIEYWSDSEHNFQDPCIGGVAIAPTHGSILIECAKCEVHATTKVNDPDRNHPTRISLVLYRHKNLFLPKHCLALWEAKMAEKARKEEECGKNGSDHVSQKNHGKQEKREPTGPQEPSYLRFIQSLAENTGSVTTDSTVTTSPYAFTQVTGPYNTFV
UniProt Q9WVH4: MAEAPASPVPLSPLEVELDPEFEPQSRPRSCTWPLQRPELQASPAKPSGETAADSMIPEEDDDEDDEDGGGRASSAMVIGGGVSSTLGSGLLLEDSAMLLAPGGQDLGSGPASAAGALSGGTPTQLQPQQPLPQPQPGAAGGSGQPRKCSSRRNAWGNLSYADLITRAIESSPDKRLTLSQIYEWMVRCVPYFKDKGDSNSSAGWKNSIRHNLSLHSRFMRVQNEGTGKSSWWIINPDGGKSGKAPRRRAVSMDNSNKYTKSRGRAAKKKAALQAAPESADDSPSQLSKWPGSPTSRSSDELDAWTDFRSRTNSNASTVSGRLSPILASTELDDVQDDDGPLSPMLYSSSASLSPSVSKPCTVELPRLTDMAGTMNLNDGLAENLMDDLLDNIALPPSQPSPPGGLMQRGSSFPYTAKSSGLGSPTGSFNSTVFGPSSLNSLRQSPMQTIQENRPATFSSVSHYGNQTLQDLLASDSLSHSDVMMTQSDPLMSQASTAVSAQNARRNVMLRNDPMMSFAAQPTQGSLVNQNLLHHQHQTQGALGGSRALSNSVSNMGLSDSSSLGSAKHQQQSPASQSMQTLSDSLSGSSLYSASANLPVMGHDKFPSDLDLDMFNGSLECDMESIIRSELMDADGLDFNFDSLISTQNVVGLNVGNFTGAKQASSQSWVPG

Biological target: Ten-eleven translocation 2 (Tet2), endogenous (mouse (endogenous in aNSCs)) (UniProt Q4JK59)
Assay: co-IP; endogenous proteins in WT aNSC lysate (RIPA buffer, brief sonication); IP with anti-Foxo3a and anti-Tet2 antibodies overnight, western blot

Substance: Forkhead box O3 (Foxo3a), endogenous (from UniProt Q9WVH4 1-672)
- binding: binds
